# Structures can show the parent of a compound that is named as a salt. Some of the results follow. The calls rarely recur for the same compound in another form.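 In K562 cells expressing nanoluciferase-fused kinases, luminescence was recorded at 4 h intervals between 2 and 18 h, normalized as percent of control with DMSO at 100% and a positive control at 0%. A significant (2 sigma) signal drop marks a time point as decreased. The authors' rule for a hit is not shown and takes in more than the number of time points.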
# Protein sequences, listed by entry. Tags and fused reporters are not part of them. Lines headed by an entry give the natural chain unless they say otherwise; changes in a name come on top.
# UniProt P48729: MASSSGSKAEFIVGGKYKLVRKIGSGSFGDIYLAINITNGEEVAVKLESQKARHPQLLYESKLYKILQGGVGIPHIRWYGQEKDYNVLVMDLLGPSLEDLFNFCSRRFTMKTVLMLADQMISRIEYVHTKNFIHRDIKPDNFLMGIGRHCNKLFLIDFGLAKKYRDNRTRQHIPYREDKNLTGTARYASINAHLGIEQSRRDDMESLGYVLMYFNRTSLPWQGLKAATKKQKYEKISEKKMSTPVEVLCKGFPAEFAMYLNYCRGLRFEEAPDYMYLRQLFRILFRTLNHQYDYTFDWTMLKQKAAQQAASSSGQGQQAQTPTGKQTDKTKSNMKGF
# UniProt P48730: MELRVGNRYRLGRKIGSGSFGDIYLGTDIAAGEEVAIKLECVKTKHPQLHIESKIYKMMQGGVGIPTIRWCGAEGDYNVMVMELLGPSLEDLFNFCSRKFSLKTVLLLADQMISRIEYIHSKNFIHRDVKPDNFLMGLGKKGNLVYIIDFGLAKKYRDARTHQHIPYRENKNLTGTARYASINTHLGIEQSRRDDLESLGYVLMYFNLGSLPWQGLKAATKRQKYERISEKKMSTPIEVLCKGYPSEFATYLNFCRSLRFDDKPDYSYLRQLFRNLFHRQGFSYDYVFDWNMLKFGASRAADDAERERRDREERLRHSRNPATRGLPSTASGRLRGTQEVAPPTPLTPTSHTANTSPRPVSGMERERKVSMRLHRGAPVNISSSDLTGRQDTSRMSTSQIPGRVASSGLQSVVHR
# UniProt Q08345: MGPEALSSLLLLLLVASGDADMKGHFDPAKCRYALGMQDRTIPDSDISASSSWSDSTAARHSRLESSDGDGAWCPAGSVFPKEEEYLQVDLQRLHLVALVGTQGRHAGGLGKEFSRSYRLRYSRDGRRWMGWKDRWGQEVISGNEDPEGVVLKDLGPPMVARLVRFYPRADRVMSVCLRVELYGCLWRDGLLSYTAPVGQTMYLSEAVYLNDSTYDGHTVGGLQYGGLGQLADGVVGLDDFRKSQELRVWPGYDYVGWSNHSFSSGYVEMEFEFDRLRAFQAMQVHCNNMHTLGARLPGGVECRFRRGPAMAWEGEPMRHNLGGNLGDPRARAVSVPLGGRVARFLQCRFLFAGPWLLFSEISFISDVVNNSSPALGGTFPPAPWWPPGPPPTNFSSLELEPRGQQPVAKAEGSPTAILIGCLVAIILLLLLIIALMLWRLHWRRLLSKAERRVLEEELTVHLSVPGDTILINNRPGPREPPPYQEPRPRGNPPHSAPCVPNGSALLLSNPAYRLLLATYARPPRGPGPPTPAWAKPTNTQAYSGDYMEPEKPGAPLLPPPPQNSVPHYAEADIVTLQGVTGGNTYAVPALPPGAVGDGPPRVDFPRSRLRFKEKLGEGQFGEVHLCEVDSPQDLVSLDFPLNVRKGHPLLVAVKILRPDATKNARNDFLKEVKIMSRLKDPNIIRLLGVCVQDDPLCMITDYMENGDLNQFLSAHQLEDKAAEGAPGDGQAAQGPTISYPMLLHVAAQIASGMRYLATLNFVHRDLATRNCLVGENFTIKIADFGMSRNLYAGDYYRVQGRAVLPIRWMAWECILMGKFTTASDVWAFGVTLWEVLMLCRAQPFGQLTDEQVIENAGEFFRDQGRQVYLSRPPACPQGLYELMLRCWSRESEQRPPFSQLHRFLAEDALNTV
# UniProt Q9Y463, whole entry, looked up: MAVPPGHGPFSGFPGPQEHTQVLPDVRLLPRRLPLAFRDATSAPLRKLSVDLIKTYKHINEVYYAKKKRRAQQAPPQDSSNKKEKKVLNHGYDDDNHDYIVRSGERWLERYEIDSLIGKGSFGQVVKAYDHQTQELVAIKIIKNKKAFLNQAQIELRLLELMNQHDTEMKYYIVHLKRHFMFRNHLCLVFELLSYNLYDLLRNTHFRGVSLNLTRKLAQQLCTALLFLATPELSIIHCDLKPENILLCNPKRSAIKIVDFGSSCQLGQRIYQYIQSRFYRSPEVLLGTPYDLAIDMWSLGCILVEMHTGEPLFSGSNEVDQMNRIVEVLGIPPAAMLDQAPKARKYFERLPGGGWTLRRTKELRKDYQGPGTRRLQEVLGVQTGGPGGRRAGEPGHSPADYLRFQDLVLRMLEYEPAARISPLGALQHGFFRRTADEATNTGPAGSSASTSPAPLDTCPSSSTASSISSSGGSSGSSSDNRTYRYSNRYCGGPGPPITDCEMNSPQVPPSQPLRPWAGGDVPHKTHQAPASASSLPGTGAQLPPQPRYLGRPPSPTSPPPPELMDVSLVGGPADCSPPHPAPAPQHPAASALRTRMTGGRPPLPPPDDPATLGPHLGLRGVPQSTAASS
# UniProt P29317, whole entry: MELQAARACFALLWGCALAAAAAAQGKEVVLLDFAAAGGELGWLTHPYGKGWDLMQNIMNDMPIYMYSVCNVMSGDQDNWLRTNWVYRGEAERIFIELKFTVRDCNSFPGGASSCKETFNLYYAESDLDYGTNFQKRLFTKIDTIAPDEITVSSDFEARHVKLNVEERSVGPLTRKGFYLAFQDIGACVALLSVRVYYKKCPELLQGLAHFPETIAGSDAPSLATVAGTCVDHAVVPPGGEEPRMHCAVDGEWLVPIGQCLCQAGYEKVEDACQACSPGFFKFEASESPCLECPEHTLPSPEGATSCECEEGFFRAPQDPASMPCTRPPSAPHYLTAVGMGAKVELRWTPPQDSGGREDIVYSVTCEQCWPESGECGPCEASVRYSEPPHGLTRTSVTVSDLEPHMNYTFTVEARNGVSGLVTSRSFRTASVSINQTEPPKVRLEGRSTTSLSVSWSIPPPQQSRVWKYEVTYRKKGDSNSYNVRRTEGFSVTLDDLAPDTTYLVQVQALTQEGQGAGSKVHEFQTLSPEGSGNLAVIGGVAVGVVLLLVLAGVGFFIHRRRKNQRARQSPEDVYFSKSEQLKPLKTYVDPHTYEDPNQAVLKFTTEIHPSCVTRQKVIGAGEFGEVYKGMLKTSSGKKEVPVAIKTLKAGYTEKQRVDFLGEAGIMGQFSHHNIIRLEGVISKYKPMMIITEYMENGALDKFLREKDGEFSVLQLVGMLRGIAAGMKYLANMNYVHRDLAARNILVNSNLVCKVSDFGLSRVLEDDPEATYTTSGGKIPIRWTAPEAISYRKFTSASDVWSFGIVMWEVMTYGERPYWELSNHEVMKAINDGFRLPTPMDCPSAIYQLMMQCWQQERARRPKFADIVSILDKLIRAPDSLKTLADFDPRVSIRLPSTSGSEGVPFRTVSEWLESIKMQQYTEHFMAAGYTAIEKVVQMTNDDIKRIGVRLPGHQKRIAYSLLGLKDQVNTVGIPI
# UniProt P21860, whole entry: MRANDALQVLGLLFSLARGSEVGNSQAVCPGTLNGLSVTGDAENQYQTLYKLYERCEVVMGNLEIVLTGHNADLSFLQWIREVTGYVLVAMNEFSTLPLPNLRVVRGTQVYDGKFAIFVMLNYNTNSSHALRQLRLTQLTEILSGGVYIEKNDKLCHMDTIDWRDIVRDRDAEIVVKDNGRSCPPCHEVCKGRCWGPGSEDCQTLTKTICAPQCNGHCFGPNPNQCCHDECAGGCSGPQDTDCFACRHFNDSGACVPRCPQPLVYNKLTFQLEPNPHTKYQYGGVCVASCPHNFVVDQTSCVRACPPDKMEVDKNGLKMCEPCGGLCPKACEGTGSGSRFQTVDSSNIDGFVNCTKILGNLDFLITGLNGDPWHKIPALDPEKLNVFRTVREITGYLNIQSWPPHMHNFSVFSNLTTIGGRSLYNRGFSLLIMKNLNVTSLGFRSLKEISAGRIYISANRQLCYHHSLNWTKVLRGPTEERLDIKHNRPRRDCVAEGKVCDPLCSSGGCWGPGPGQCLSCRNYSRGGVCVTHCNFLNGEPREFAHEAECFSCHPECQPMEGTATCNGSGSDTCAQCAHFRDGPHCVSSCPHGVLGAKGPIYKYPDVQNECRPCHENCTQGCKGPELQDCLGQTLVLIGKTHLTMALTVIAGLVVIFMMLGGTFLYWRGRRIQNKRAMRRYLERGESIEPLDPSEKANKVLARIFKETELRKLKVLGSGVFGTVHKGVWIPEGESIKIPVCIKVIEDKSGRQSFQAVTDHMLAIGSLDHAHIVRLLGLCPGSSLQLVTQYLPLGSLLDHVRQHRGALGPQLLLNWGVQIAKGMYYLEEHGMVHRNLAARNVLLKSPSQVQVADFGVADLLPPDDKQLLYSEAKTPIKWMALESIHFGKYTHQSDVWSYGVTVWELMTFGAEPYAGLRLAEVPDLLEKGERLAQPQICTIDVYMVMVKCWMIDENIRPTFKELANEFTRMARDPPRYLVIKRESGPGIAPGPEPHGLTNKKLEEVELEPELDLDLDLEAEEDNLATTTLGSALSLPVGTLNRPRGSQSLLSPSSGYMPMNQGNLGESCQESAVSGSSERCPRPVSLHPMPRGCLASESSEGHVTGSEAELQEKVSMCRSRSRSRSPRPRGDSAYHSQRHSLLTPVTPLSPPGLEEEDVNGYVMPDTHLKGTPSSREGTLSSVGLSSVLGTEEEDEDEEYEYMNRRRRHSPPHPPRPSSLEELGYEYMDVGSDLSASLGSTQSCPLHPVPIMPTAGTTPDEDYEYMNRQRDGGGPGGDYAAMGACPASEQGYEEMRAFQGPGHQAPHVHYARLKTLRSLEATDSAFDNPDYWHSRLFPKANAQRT
# UniProt O75460: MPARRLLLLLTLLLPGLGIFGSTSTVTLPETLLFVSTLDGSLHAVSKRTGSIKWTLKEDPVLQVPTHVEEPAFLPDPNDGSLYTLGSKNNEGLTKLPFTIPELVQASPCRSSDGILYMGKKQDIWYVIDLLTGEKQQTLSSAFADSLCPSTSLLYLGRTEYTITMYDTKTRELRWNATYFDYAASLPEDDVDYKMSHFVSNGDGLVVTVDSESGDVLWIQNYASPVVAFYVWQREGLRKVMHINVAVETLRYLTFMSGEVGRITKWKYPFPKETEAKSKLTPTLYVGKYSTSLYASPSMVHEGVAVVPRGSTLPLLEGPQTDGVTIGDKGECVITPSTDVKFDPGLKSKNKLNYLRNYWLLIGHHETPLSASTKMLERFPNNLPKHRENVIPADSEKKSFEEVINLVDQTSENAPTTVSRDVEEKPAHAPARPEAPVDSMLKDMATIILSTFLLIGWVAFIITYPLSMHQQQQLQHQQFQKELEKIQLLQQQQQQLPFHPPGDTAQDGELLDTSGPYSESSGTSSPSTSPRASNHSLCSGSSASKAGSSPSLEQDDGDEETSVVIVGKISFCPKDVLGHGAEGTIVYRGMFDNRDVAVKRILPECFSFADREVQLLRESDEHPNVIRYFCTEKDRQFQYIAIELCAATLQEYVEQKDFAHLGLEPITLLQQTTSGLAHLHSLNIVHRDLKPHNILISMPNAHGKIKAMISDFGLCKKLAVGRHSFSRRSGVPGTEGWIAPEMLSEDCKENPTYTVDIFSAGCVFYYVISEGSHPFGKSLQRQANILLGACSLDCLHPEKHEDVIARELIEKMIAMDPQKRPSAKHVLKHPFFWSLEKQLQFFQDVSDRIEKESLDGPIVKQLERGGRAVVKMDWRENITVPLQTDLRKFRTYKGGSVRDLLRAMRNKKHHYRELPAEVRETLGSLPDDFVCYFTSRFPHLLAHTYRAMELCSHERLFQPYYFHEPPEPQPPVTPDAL
# UniProt P21802, whole entry, looked up: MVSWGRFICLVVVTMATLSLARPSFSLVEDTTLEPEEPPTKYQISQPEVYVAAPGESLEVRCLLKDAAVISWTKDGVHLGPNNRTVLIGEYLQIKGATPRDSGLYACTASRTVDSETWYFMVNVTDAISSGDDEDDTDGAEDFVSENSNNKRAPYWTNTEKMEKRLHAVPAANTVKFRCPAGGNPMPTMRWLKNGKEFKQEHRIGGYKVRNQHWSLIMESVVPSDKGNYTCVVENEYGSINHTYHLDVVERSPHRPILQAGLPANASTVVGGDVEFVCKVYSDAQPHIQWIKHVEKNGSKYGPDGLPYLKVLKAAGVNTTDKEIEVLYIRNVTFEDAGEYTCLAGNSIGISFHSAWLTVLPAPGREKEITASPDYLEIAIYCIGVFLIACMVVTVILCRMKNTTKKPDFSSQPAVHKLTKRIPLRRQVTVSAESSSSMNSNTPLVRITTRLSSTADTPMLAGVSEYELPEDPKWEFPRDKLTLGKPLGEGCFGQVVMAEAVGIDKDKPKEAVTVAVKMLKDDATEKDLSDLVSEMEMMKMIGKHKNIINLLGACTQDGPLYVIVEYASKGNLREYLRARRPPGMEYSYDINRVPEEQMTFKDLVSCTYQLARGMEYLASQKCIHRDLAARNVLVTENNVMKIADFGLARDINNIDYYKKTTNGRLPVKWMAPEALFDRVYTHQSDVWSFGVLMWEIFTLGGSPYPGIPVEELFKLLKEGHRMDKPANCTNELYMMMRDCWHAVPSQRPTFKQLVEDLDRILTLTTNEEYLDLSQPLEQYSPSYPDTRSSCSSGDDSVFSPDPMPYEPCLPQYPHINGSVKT
# Assays:
# Test in all cases: number of time points (of 5) at which kinase-Nluc abundance scored as decreased, DMSO-normalised (count); higher = more persistent destabilization
# Conditions in all cases: K562; 2-18 h
# CSNK1A1 = CSNK1A1 (UniProt P48729)
# CSNK1D = CSNK1D (UniProt P48730)
# DDR1 = DDR1 (UniProt Q08345)
# DYRK1B = DYRK1B (UniProt Q9Y463)
# DYRK2 = DYRK2 (UniProt Q92630)
# EGFR = EGFR (UniProt P00533)
# EGFR_G719S = EGFR_G719S (UniProt P00533)
# EGFR_G719S_T790M = EGFR_G719S_T790M (UniProt P00533)
# EGFR_L718V = EGFR_L718V (UniProt P00533)
# EGFR_L858R = EGFR_L858R (UniProt P00533)
# EGFR_L861Q = EGFR_L861Q (UniProt P00533)
# EGFR_T790M = EGFR_T790M (UniProt P00533)
# EPHA2 = EPHA2 (UniProt P29317)
# ERBB3 = ERBB3 (UniProt P21860)
# [1] = biological target: ERBB4_R711C (clone: ERBB4_mut) (UniProt Q15303)
# ERN1 = ERN1 (UniProt O75460)
# FGFR1 = FGFR1 (UniProt P11362)
# FGFR2 = FGFR2 (UniProt P21802)
# FGFR3 = FGFR3 (UniProt P22607)
# FGR = FGR (UniProt P09769)
Structure (SMILES),number of time points (CSNK1A1),number of time points (CSNK1D),number of time points (DDR1),number of time points (DYRK1B),number of time points (DYRK2),number of time points (EGFR),number of time points (EGFR_G719S),number of time points (EGFR_G719S_T790M),number of time points (EGFR_L718V),number of time points (EGFR_L858R),number of time points (EGFR_L861Q),number of time points (EGFR_T790M),number of time points (EPHA2),number of time points (ERBB3),number of time points [1],number of time points (ERN1),number of time points (FGFR1),number of time points (FGFR2),number of time points (FGFR3),number of time points (FGR)
O=C(Nc1nc(=O)n(Cc2ccc(Cl)cc2)s1)c1ccc(Cl)cc1 (10 µM),0,0,0,0,0,0,0,0,0,0,0,0,0,0,0,0,0,0,0,0
CN1CCC(c2ccccc2CC(C)(C)Nc2nc(N3CCOCC3)nc(-n3c(C(F)F)nc4ccccc43)n2)CC1 [Zandelisib] (10 µM),0,0,0,0,0,0,0,0,0,0,0,0,0,0,0,0,0,0,0,0
C=CC(=O)Nc1cc(Nc2nccc(-n3cc(CN(C)C)c(-c4ccccc4)n3)n2)c(OC)cc1N1CCOCC1 [Lazertinib] (10 µM),0,0,0,0,0,0,0,0,0,0,0,0,0,0,0,0,0,0,0,0
CN1CC[C@@H](c2c(O)cc(O)c3c(=O)cc(-c4ccc(C(F)(F)F)cc4Cl)oc23)[C@@H]1CO [Voruciclib (hydrochloride)] (10 µM),0,0,0,0,0,0,0,0,0,0,0,0,0,0,0,0,0,0,0,0
O=c1cc(N2CCOCC2)nc2c3ccccc3ccn12 [Compound 401] (10 µM),0,0,0,0,0,0,0,0,0,0,0,0,0,0,0,0,0,0,0,0
O=Nc1c2[nH]c3ccccc3nc-2c2ccccc12 [IQ-1S (free acid)] (2.5 µM),0,0,0,0,0,0,0,0,0,0,0,0,0,0,0,0,0,0,0,0
COc1c(Nc2cc(C)[nH]n2)nc(Sc2ccc(S(=O)(=O)Cc3cccc([N+](=O)[O-])c3F)cc2F)nc1N1CCCCC1 [Centrinone-B] (2.5 µM),0,0,0,0,0,0,0,0,0,0,0,0,0,0,0,0,0,0,0,0
CCOC(=O)N1C/C(=C/c2ccccc2F)C(=O)/C(=C\c2ccccc2F)C1 (2.5 µM),0,0,0,0,0,0,0,0,0,0,0,0,0,0,0,0,0,0,0,0
FC(F)(F)c1ccc(/C=C/c2nc(COc3ccc(CCCCn4ccnn4)cc3)co2)cc1 [Mubritinib] (10 µM),0,0,1,0,0,0,0,0,0,1,1,0,0,0,2,0,0,1,0,0
CN(C)CCC=C1c2ccccc2CCc2ccccc21 [Amitriptyline (hydrochloride)] (2.5 µM),0,0,0,0,0,0,0,0,0,0,0,0,0,0,0,0,0,0,0,0
CN1C(=O)[C@@H](NC(=O)c2n[nH]c(Cc3ccccc3)n2)COc2ccccc21 (10 µM),0,0,0,0,0,0,0,0,0,0,0,0,0,0,0,0,0,0,0,0
Cn1cc(-c2c[nH]c3ncnc(N4CCOCC4)c23)cc1C#N (10 µM),0,0,0,0,0,0,0,0,0,0,0,0,0,0,0,0,0,0,0,0
CCn1c(=O)c(-c2cc[nH]n2)cc2c(C)nc(N)nc21 [Voxtalisib] (10 µM),0,0,0,0,0,0,0,0,0,0,2,0,0,0,1,0,0,0,0,0
O=C(Nc1nc2ccccc2[nH]1)c1cccc([N+](=O)[O-])c1 [IRAK-4 protein kinase inhibitor 2] (10 µM),0,0,0,0,0,0,0,0,0,0,0,0,0,0,0,0,0,0,0,0
C[C@@H]1CC(=O)c2c(ccc3c2C(=O)c2cccc(O)c2C3=O)C1 [Ochromycinone] (10 µM),0,0,0,0,0,0,0,0,0,0,0,0,0,0,0,0,0,0,0,0
NC(=O)c1cnc2[nH]ccc2c1N[C@@H]1[C@@H]2CC3C[C@H]1C[C@@](O)(C3)C2 [Peficitinib] (10 µM),0,0,1,0,4,0,3,2,0,0,4,0,0,3,3,2,0,3,0,0
CC(C)CNc1ccnc(NCc2csc(-c3ccccc3)n2)n1 [KHS101 hydrochloride] (2.5 µM),0,0,0,0,2,0,1,1,0,0,2,0,0,0,2,0,0,0,0,0
CNC(=O)c1ccccc1Nc1nc(Nc2ccc3c(c2OC)CCC[C@H](N2CCN(CCO)CC2)C3)ncc1Cl (10 µM),0,0,2,1,4,0,1,1,1,1,2,0,0,3,3,2,1,3,0,0
O=C(NCc1cccc(O)c1)Nc1nc(-c2ccncc2)cs1 (10 µM),0,0,0,0,0,0,0,0,0,0,0,0,0,0,0,0,0,0,0,0
C[C@@H]1CCNC(=O)c2cc3ccc(C(=O)Nc4nc5ccccc5n4CCCN(C)C)cc3n21 (10 µM),0,0,0,0,0,0,0,0,0,0,0,0,0,0,0,0,0,0,0,0
CCN(CC)CCC(=O)N1N=C(c2c(-c3ccccc3)c3cc(Br)ccc3[nH]c2=O)CC1c1ccc(Br)cc1 (stereo not given) (2.5 µM),0,0,1,0,0,0,0,0,0,0,0,0,0,0,0,0,0,0,0,0
CS(=O)(=O)c1ccc(-c2cnc(N)c(-c3ccc(C(F)(F)F)nc3)c2)cc1 (10 µM),0,0,0,0,0,0,0,0,0,0,0,0,0,0,0,0,0,0,0,0
COc1cc(N2CCOCC2)ccc1NC(=O)c1csc(-c2cccnc2)n1 [IRAK inhibitor 6] (10 µM),0,0,0,0,0,0,0,0,0,0,0,0,0,0,0,0,0,0,0,0
Cc1ccc(NC(=O)c2ccc(CN(CCN(C)C)C(=O)c3cccnc3)cc2)cc1Nc1nccc(-c2cccnc2)n1 [PDGFRα kinase inhibitor 1] (10 µM),0,0,0,0,0,0,0,0,0,0,0,0,0,0,0,0,0,0,0,0

# Ordered by number of heavy atoms (descending): three of the compounds above
Structure (SMILES),number of time points (CSNK1A1),number of time points (CSNK1D),number of time points (DDR1),number of time points (DYRK1B),number of time points (DYRK2),number of time points (EGFR),number of time points (EGFR_G719S),number of time points (EGFR_G719S_T790M),number of time points (EGFR_L718V),number of time points (EGFR_L858R),number of time points (EGFR_L861Q),number of time points (EGFR_T790M),number of time points (EPHA2),number of time points (ERBB3),number of time points [1],number of time points (ERN1),number of time points (FGFR1),number of time points (FGFR2),number of time points (FGFR3),number of time points (FGR)
CNC(=O)c1ccccc1Nc1nc(Nc2ccc3c(c2OC)CCC[C@H](N2CCN(CCO)CC2)C3)ncc1Cl (10 µM),0,0,2,1,4,0,1,1,1,1,2,0,0,3,3,2,1,3,0,0
CCN(CC)CCC(=O)N1N=C(c2c(-c3ccccc3)c3cc(Br)ccc3[nH]c2=O)CC1c1ccc(Br)cc1 (stereo not given) (2.5 µM),0,0,1,0,0,0,0,0,0,0,0,0,0,0,0,0,0,0,0,0
Cn1cc(-c2c[nH]c3ncnc(N4CCOCC4)c23)cc1C#N (10 µM),0,0,0,0,0,0,0,0,0,0,0,0,0,0,0,0,0,0,0,0

# From the supplement of paper PMC12823440, “Inhibitors supercharge kinase turnover through native proteolytic circuits” (Nature, 2025)
